Here are results for three molecules from paper PMC8292550, “Molecular characterization of direct interactions between MPP1 and flotillins” (Scientific Reports, 2021).

Results are given in words; binding and its absence hold for the method and conditions named. Some binding calls cover weakened binding; strength is not graded here. Tags and fused reporters may be left off the sequences shown.

Test [1] concerns the target T1, recombinant His-tagged flotillin 1 (UniProt O75955-1 1-427).
T1 construct: flotillin 1; the discussion speaks of bacterially expressed proteins; also called FL1
T1 sequence (looked up): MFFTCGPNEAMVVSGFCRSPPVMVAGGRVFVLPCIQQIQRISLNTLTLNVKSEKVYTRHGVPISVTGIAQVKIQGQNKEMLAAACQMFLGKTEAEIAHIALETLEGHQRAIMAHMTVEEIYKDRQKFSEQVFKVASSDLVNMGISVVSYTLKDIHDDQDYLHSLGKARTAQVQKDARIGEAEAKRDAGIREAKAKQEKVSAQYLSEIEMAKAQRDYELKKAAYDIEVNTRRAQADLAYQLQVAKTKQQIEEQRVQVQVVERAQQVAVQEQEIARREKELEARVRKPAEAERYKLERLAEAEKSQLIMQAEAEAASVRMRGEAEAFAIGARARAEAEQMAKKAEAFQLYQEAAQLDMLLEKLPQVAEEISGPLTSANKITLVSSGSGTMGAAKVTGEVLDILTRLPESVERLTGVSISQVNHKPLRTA
Kind of test: SPR; His-tagged flotillin 1 or 2 captured on a Ni-NTA sensor chip (about 4000 RU), BIAcore T200; untagged MPP1 or its truncated mutants as analytes (at least five concentrations, 50-2000 nM), association 360 s, dissociation 600 s; HBS-T; global fit, 1:1 Langmuir model with mass transport step; both purified. In general terms: In SPR one partner is held on a chip, and binding of the other changes the refractive index at the surface.

Test [2] deals with T2, recombinant His-tagged flotillin 2 (UniProt Q14254 1-428).
T2 construct: flotillin 2; also called FL2
T2 sequence (looked up): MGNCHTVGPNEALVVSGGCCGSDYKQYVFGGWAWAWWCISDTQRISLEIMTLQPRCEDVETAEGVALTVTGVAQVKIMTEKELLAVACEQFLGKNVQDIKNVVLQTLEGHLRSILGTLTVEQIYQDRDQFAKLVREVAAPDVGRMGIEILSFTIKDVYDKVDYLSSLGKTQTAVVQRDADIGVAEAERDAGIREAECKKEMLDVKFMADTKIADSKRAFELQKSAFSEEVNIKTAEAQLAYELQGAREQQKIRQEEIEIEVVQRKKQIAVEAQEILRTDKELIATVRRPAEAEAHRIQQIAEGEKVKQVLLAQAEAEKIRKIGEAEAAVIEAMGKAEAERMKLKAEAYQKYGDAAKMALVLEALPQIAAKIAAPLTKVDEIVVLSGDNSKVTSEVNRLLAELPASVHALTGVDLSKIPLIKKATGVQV
The description is as above.

The target of test [3] is T1, recombinant His-tagged flotillin 1. Kind of test: ELISA; competitive ELISA with bacterially expressed recombinant proteins; MPP1-Mut4 against the full-length MPP1-flotillin 1 interaction, compared to MPP1-Mut1 (Fig. S6); both purified. A general note: An ELISA detects its analyte on a solid surface through an enzyme-linked reagent.

B1: MPP1-Mut1 (residues 63–230) (domain or fragment, UniProt Q00013 63-230)
chain: GQEVRKVRLIQFEKVTEEPMGITLKLNEKQSCTVARILHGGMIHRQGSLHVGDEILEINGTNVTNHSVDQLQKAMKETKGMISLKVIPNQQSRLPALQMFMRAQFDYDPKKDNLIPCKEAGLKFATGDIIQIINKDDSNWWQGRVEGSSKESAGLIPSPELQEWRVAS
As to B1, the binding result in test [1] and in test [2] was “no binding (tested: 1600 nM)” in each case.

B2: MPP1-Mut5 (residues 272–466) (domain or fragment, UniProt Q00013 272-466)
chain: EEVVRLPAFKRKTLVLIGASGVGRSHIKNALLSQNPEKFVYPVPYTTRPPRKSEEDGKEYHFISTEEMTRNISANEFLEFGSYQGNMFGTKFETVHQIHKQNKIAILDIEPQTLKIVRTAELSPFIVFIAPTDQGTQTEALQQLQKDSEAIRSQYAHYFDLSLVNNGVDETLKKLQEAFDQACSSPQWVPVSWVY
Take B2: the binding entry in test [1] and in test [2] was “no binding (tested: 1600 nM)” in each case.

B3: full length recombinant MPP1 (protein, UniProt Q00013 1-466)
chain: MTLKASEGESGGSMHTALSDLYLEHLLQKRSRPEAVSHPLNTVTEDMYTNGSPAPGSPAQVKGQEVRKVRLIQFEKVTEEPMGITLKLNEKQSCTVARILHGGMIHRQGSLHVGDEILEINGTNVTNHSVDQLQKAMKETKGMISLKVIPNQQSRLPALQMFMRAQFDYDPKKDNLIPCKEAGLKFATGDIIQIINKDDSNWWQGRVEGSSKESAGLIPSPELQEWRVASMAQSAPSEAPSCSPFGKKKKYKDKYLAKHSSIFDQLDVVSYEEVVRLPAFKRKTLVLIGASGVGRSHIKNALLSQNPEKFVYPVPYTTRPPRKSEEDGKEYHFISTEEMTRNISANEFLEFGSYQGNMFGTKFETVHQIHKQNKIAILDIEPQTLKIVRTAELSPFIVFIAPTDQGTQTEALQQLQKDSEAIRSQYAHYFDLSLVNNGVDETLKKLQEAFDQACSSPQWVPVSWVY
Turning to B3, in test [3], the binding entry is given as “binds”.
